Our source for the binding values is publication PMC5896254.

Sequences of proteins named here, by UniProt entry; tags and fusion partners are left off. A change or cut given only in a name is not applied to a line headed by its entry.
UniProt P62491: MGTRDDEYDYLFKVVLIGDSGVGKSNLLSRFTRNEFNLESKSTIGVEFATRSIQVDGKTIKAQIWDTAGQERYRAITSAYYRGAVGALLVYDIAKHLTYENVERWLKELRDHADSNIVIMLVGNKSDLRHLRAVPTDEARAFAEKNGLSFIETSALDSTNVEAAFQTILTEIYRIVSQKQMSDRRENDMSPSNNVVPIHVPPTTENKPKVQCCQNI

No constants are given. Whether binding was seen depends on the method and setting. In cells and extracts the contact can be indirect. Some binding calls cover weakened binding; strength is not graded here.

The experiment addresses T1, WIPI1 (UniProt Q5MNZ9).
T1 sequence: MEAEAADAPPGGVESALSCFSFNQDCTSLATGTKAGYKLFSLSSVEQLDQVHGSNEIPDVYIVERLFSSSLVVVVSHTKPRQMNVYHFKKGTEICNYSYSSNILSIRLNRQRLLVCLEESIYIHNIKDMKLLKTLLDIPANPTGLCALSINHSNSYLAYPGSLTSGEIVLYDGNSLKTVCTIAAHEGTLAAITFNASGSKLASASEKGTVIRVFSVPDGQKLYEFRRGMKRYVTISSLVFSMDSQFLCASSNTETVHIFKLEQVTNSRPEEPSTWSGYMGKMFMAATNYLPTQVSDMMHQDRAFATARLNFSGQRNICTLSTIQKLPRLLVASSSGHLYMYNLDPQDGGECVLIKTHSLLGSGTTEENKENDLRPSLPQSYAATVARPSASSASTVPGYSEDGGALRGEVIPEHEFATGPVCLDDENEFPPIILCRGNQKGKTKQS
In words: pull-down; WIPI1 as bait, RAB11A detected; nothing more told in the text shown (Figure S1Q).

In the case of “RAB11A (pulled down by WIPI1, Figure S1Q) (from UniProt P62491 1-216)”, the binding result is reported as “binds”.
